In assay [1] the target is cE2-B (SEC-E2 heated for 1 h at 95 C) (Classical Swine Fever Virus) (UniProt P21530). In words: ELISA, coated E2 form, tPA series with eACA.
The target in assay [2] is cE2-A (SEC-E2 heat-cycled three times 25 to 85 C) (Classical Swine Fever Virus) (UniProt P21530). In words: ELISA, coated E2 form, tPA series with eACA.
Assay [3] has as its target cE2-B (SEC-E2 heated for 1 h at 95 C) (Classical Swine Fever Virus) (UniProt P21530). In words: ELISA, coated E2 form, Fn F4-5 series, anti-FLAG-HRP detection. In general terms: An ELISA detects its analyte on a solid surface through an enzyme-linked reagent.
The target in assay [4] is cE2-A (SEC-E2 heat-cycled three times 25 to 85 C) (Classical Swine Fever Virus) (UniProt P21530). The assay is described as above.

Chains of the proteins cited; added tags and fusions are not shown. Residues count along the entry.
UniProt P21530, residues 690-1030: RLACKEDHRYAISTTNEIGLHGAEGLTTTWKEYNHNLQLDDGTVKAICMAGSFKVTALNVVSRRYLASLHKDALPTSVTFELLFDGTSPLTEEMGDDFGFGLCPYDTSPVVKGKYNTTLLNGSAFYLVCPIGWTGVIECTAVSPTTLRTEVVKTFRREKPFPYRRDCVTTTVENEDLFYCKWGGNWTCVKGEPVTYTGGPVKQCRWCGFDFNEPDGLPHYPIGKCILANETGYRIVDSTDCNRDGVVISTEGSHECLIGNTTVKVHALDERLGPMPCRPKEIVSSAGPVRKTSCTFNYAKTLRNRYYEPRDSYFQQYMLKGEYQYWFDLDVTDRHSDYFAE
UniProt P00750, residues 36-562: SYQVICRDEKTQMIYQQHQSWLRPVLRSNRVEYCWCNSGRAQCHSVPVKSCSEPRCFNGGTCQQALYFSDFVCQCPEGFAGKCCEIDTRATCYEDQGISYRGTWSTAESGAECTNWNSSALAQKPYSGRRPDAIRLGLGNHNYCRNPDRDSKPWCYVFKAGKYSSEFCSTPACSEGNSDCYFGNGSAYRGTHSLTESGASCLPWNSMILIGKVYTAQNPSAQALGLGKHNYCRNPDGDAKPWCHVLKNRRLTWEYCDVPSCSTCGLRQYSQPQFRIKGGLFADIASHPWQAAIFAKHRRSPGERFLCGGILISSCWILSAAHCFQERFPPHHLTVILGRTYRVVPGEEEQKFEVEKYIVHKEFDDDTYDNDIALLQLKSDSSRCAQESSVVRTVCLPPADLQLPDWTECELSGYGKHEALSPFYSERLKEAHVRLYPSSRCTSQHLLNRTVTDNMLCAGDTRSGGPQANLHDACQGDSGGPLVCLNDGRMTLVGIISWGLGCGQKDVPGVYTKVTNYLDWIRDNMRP
UniProt P02751, residues 183-275: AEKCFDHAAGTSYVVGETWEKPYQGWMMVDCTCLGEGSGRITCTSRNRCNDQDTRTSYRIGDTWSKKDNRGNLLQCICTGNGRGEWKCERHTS

No constants are given. Whether binding was seen depends on the method and setting. Some entries that bind do so weakly or less than the wild type.

On to “tissue type plasminogen activator (tPA; Actilyse, Boehringer-Ingelheim) (from UniProt P00750 36-562) (enzyme)”, for which the binding result in assay [1] and in assay [2] was “binds” each time.

On to “fourth and fifth finger domain of fibronectin (Fn F4-5), with C-terminal FLAG-tag (from UniProt P02751 183-275)”, for which the binding result in assay [3] and in assay [4] was “binds” each time.

(Values after US20090142377A1.)
